Measurements: article PMC7819943, “Rice protein-binding microarrays: a tool to detect cis-acting elements near promoter regions in rice”
The list shows a part of the results.

biological target: T1, OsSMF1 (Oryza sativa, UniProt Q6ZLB0 1-436); assay: protein-binding microarray (RPBM); PBS, 2% BSA, 51.3 ng/ul salmon testes DNA, 50 uM zinc acetate, 200 nM TF, 25 C, 1 h; high values mean tight binding; settings: protein: recombinant; tags: N-terminal polyhistidine and DsRed monomer fusion (pET32a); chain copies: 2; label: CyDye5-dUTP incorporated in the synthesized complementary strand; 3' TTTTT single-stranded linker to array surface; dsDNA, one strand shown
T1 sequence: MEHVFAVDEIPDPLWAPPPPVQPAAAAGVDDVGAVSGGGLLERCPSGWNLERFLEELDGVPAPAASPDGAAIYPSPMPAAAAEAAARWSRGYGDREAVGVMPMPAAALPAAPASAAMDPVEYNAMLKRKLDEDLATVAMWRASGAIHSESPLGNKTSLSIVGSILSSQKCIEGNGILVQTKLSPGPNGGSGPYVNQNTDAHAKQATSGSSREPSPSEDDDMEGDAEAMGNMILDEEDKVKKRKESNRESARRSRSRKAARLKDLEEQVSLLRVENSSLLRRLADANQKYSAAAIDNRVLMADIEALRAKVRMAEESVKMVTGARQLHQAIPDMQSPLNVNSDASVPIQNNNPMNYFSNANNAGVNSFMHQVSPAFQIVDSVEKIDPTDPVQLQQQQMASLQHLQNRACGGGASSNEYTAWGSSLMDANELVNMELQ
In short: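 Ni–NTA purification followed expression in E. coli BL21-CodonPlus of transcription factors fused N-terminally to a polyhistidine tag and DsRed. At 200 nM in PBS with 2% BSA, salmon testes DNA and 50 µM zinc acetate, the protein was incubated for 1 h at 25 °C with a custom Agilent array that had been primer-extended with Cy5-dUTP and blocked with 2% BSA. After washing, the array was read on an Axon 4000B scanner. The binding signal is per-feature fluorescence intensity in arbitrary units.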

Sequence | binding signal
GTTATTCACCGTCTGATGTGGATGAACGACTGCACGGTACCGGAGTCACCTAGTGCAG | 6720 fluorescence intensity (a.u.)
GAACACCTACGTCATCCTTCAAGCGACGCAGTCCGACCGCCGGAGTCACCTAGTGCAG | 9950 fluorescence intensity (a.u.)
ATAGGCAAGTTTGCTATGATTGCTGGCGTGTCCTATAGGACGGAGTCACCTAGTGCAG | 5120 fluorescence intensity (a.u.)
AGGTCAGGGAGCTGGCGGTGGTGGGCGGGACGGGCAAGCTCGGAGTCACCTAGTGCAG | 4400 fluorescence intensity (a.u.)
ACGCGCGCCGCGCCGCGCCGTGCCACGCCCGTTCGTCCATCGGAGTCACCTAGTGCAG | 5820 fluorescence intensity (a.u.)
GTTTTGATTGCAAACTGTACTAAGACCATCCGTTGTAATTCGGAGTCACCTAGTGCAG | 9110 fluorescence intensity (a.u.)
CAAACAACCACAGTGAAACTGAATGGAGTAGTTCATGCCACGGAGTCACCTAGTGCAG | 24400 fluorescence intensity (a.u.)
GCATCGTGAGGAGGCGCTCGTCGTCGCCGGCGAAGGCTGCCGGAGTCACCTAGTGCAG | 14500 fluorescence intensity (a.u.)
AGCTAATTTTCTAGCAAATATACTTAAACATACGTCTATTCGGAGTCACCTAGTGCAG | 32500 fluorescence intensity (a.u.)
CAACTTCACAGACCTCCGACAGGCTGAAAGCAGTGGTCCACGGAGTCACCTAGTGCAG | 3260 fluorescence intensity (a.u.)
GATGTGACAGGGATCTTAATTTTAGTCCCTGATCCAAACTCGGAGTCACCTAGTGCAG | 3400 fluorescence intensity (a.u.)
GTGTTGAAACTTTGCCACGCGCCTGTATGTTTGTAAGGATCGGAGTCACCTAGTGCAG | 5300 fluorescence intensity (a.u.)
TGTGATTGGGCACAAGCACAACAGCGTCACCATGGATCTTCGGAGTCACCTAGTGCAG | 4600 fluorescence intensity (a.u.)
TTCGGGTTGAAAATTGCCACGTAAGCGCTACGTTAATTCCCGGAGTCACCTAGTGCAG | 12000 fluorescence intensity (a.u.)
GATGGAGTCAAGTCATCATCTGTTCGTAGATCAACTTCCACGGAGTCACCTAGTGCAG | 4580 fluorescence intensity (a.u.)
CCTAACAGCATGGAGCATTCATGACGTCAGCTACCACGAGCGGAGTCACCTAGTGCAG | 17700 fluorescence intensity (a.u.)
TAGAAAACGGTTTTAACTCCTGCGTCAGCATCTACCGCTCCGGAGTCACCTAGTGCAG | 13000 fluorescence intensity (a.u.)
AAGCGGCGATCACAACTGCACGTCATGTTTTCCAAAAGAGCGGAGTCACCTAGTGCAG | 4020 fluorescence intensity (a.u.)
AGATAGGTTCTAGCTAATTCACAGTCACAGGTTCTCTTCCCGGAGTCACCTAGTGCAG | 3220 fluorescence intensity (a.u.)
ATACAGTCATTGACAACGCATATATGTAGCTAGCACGAGACGGAGTCACCTAGTGCAG | 4720 fluorescence intensity (a.u.)
GCCGGTCGCGCCGGCGGAAACCACGACGGGGCTCTGCCTCCGGAGTCACCTAGTGCAG | 19700 fluorescence intensity (a.u.)

Single values from above.
CCTAACAGCATGGAGCATTCATGACGTCAGCTACCACGAGCGGAGTCACCTAGTGCAG – binding signal: 17700 fluorescence intensity (a.u.)
AAGCGGCGATCACAACTGCACGTCATGTTTTCCAAAAGAGCGGAGTCACCTAGTGCAG – binding signal: 4020 fluorescence intensity (a.u.)

Going on with the list:

Sequence | binding signal
ACCAAATGTGTATGGGGTACGGATGAATCCTACACCCACGCGGAGTCACCTAGTGCAG | 3760 fluorescence intensity (a.u.)
TTCCTGACTTCCTCCTCCCTTTCTTCTCTCGCCGCCGAGACGGAGTCACCTAGTGCAG | 41400 fluorescence intensity (a.u.)
TTGCCTACTCATGCACCACAAAGCTTGGTGACCGAACTAGCGGAGTCACCTAGTGCAG | 3210 fluorescence intensity (a.u.)
TCACACAACGCCACGTCACCATATGTTACGGGCAGCCATGCGGAGTCACCTAGTGCAG | 17500 fluorescence intensity (a.u.)
CACCTTGATCCACCTCGATCCGCTGGACGTGTGCTCGGGACGGAGTCACCTAGTGCAG | 4950 fluorescence intensity (a.u.)
ATCATATTAATTATTTCAAATTTACCATTTTATCATGTATCGGAGTCACCTAGTGCAG | 4720 fluorescence intensity (a.u.)
CTAACCACTTGCTCTGACATACCGTGTGTGTACCACACCACGGAGTCACCTAGTGCAG | 4060 fluorescence intensity (a.u.)
ACAGCCTAGCTTCTCTAGCACAGCAGCATGTTCACTTCTTCGGAGTCACCTAGTGCAG | 3490 fluorescence intensity (a.u.)
AGATGTTTTAACGTTGGTCAAAGTCAAACTGCTTCAAGTTCGGAGTCACCTAGTGCAG | 3560 fluorescence intensity (a.u.)
CTCGGTGCAGCGTCTCCCGTGTTGTCTTGTTGCTCTTGTGCGGAGTCACCTAGTGCAG | 3370 fluorescence intensity (a.u.)
TAAATTAATAAATATACATGAATCAGCTAGCTAGCGGTAACGGAGTCACCTAGTGCAG | 3430 fluorescence intensity (a.u.)
TATTGATTGATTGGTTAGTACTACAGTACTGTAGGAGTGGCGGAGTCACCTAGTGCAG | 29800 fluorescence intensity (a.u.)
GATGGGCTTGTGCTGACATCATCTATACGTGCTTTGCTCCCGGAGTCACCTAGTGCAG | 14500 fluorescence intensity (a.u.)
ATTCCAAGCAGGTGGACCCGCGTGTCATCCCCACTCTACACGGAGTCACCTAGTGCAG | 5490 fluorescence intensity (a.u.)
TGTCGTTGGCCTCCCTCGTCGCCATCCGTGCCGTCATGTGCGGAGTCACCTAGTGCAG | 3640 fluorescence intensity (a.u.)
ACCCGCCCACCGGCCTGGCCACACACCGCCGCCACGCTGGCGGAGTCACCTAGTGCAG | 4800 fluorescence intensity (a.u.)
TCTGCATGTTGGAGTAAGGCGTGAGTCAAGGCCAAATTAGCGGAGTCACCTAGTGCAG | 3890 fluorescence intensity (a.u.)
CCCCGGAAGGGGCGGGGAGGGGAGGGCGGCAGCGGCGCCGCGGAGTCACCTAGTGCAG | 6060 fluorescence intensity (a.u.)
TGATTGGTTGGCTGGTTGGTTAGTTGGCGCTTTTATCGTGCGGAGTCACCTAGTGCAG | 4160 fluorescence intensity (a.u.)
GGGTATCCTAACACTACCCATACCCCTTCTCCCTCACTCACGGAGTCACCTAGTGCAG | 3410 fluorescence intensity (a.u.)
TAAATGGAGTGCTTTGCCTTTGCTTGCGCGTGAGCATCCACGGAGTCACCTAGTGCAG | 3220 fluorescence intensity (a.u.)
